# Data as given in PubChem BioAssay AID1259308 (NCATS, 2017).
# Test: 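Knock-downs that increase output of a recombinant reporter protein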 (primary screen)
# Cell system: human HEK293 embryonic kidney cells stably expressing firefly luciferase (HEK-CMV-Luc2-Hygro)
# Knock-down reagent: single siRNA against human genes, 0.8 pmol siRNA per well
# Timing: 72 h
# Measurement: 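Reporter luminescence and viable-cell signal on separate replicate plates, given as percent of non-targeting control and median/MAD z-scores, plus per-cell luciferase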
# Reading the numbers: total luciferase, z-score: higher = more reporter protein produced
# Call rule: 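Active when the median/MAD z-score for overall luciferase is greater than 3; a gene was taken forward for validation with new siRNAs if at least two of its three siRNAs passed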
# Calls: active = raised luciferase; inactive = no rise
# Shown is a random part of about 59,000 reagents. About 1,510 of them (2.6%) were called active. 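Calls use total luciferase alone and ignore viability, so some active siRNAs may act by altering cell number.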 Unmarked entries are inactive. The numbers tell different reagents against one gene apart. Not all columns of the deposit are shown.
The opening 2 records, to show the layout:
gene symbol,reagent no.,"total luciferase, z-score"
PDSS2 (GeneID 57107),1,-0.0846
PDSS2 (GeneID 57107),2,0.344

Results, from the first entry:
gene symbol,reagent no.,"total luciferase, z-score"
PDSS2 (GeneID 57107),1,-0.0846
PDSS2 (GeneID 57107),2,0.344
PDSS2 (GeneID 57107),3,0.393
TMOD2 (GeneID 29767),1,1.66
TMOD2 (GeneID 29767),2,0.493
TMOD2 (GeneID 29767),3,-0.736
RIC8A (GeneID 60626),1,-0.0691
RIC8A (GeneID 60626),2,-0.655
RIC8A (GeneID 60626),3,2.22
RNF144B (GeneID 255488),1,-0.586
RNF144B (GeneID 255488),2,1.59
RNF144B (GeneID 255488),3,0.707
MEOX2 (GeneID 4223),1,0.412
MEOX2 (GeneID 4223),2,0.396
MEOX2 (GeneID 4223),3,0.722
HSP90AA1 (GeneID 3320),1,-0.307
HSP90AA1 (GeneID 3320),2,-0.104
HSP90AA1 (GeneID 3320),3,-0.843
DYNLL1P7 (GeneID 729630),1,-0.303
DYNLL1P7 (GeneID 729630),2,0.248
DYNLL1P7 (GeneID 729630),3,-0.227
AKAP14 (GeneID 158798),1,0.246
AKAP14 (GeneID 158798),2,0.908
AKAP14 (GeneID 158798),3,-0.206
ATP1B3 (GeneID 483),1,-0.767
ATP1B3 (GeneID 483),2,0.79
ATP1B3 (GeneID 483),3,-1.78
SGCD (GeneID 6444),1,-1.53
SGCD (GeneID 6444),2,-0.57
SGCD (GeneID 6444),3,-0.534
RLIM (GeneID 51132),1,0.55
RLIM (GeneID 51132),2,1.3
RLIM (GeneID 51132),3,-1.47
EEF1DP1 (GeneID 126037),1,0.237
EEF1DP1 (GeneID 126037),2,1.19
EEF1DP1 (GeneID 126037),3,0.376
FLJ38576 (GeneID 651430),1,1.98
FLJ38576 (GeneID 651430),2,2.11
FLJ38576 (GeneID 651430),3,0.944
PRR14 (GeneID 78994),1,1.56
PRR14 (GeneID 78994),2,0.346
PRR14 (GeneID 78994),3,0.984
C17orf75 (GeneID 64149),1,-0.217
C17orf75 (GeneID 64149),2,-1.18
C17orf75 (GeneID 64149),3,-0.721
CXCR4 (GeneID 7852),1,0.111
CXCR4 (GeneID 7852),2,1.58
CXCR4 (GeneID 7852),3,-1.26
ZNF765 (GeneID 91661),1,-1.7
ZNF765 (GeneID 91661),2,2.4
ZNF765 (GeneID 91661),3,0.221
C1orf146 (GeneID 388649),1,5.46 (active)
C1orf146 (GeneID 388649),2,2.84
C1orf146 (GeneID 388649),3,-1.4
P2RX3 (GeneID 5024),1,-0.708
P2RX3 (GeneID 5024),2,0.0639
P2RX3 (GeneID 5024),3,1.02
